Measurements published in patent US20180282403A1, “AGENTS FOR REDUCING THE ACTIVITY OF GDF15” (GENAGON THERAPEUTICS AB, priority 2015, published 2018).
These are yes or no findings as the source states them, for the method shown. For some of these results: Binding seen in cells or lysates may run through a third protein. Some results given as binding are weak or reduced against the parent protein; the word gives no strength.

T1: Growth and differentiation factor 15 (GDF15) (UniProt Q99988 197-308, limits assumed)
T1 construct: Purchased GDF15 added to cells, pull-downs, peptide arrays and ELISA; also called MIC1
T1 sequence (looked up): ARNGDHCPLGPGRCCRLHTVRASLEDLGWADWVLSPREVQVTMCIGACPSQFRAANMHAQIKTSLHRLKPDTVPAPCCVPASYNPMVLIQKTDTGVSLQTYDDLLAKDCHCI


target: T1, Growth and differentiation factor 15 …; test: biotin-peptide pull-down, Western blot

binding | Binder
binds | GEIKYDFLYEKEHICCLEEWTS (N-terminal biotin) [Biotin-… (Extracellular domain 3 from QRFPR)]
binds | GALFWEQHDLVYGDWTS (N-terminal biotin) [Biotin-… (peptide from extracellular domain of CLPTM1)]

target: T1, Growth and differentiation factor 15 …; test: condition: cut-off of approximately greater than or equal to 0.1 OD; GDF15 at 100 ng/ml; ELISA, biotinylated peptide in streptavidin wells

Binder | binding
QNPPAQPAPNAWQVIKGVLFG (biotinylated (position not given); C-terminal glycine not present in CLPTM1) [CLPTM1 peptide … (SEQ ID NO: 252)] | no binding
AAAQEADGARSAVVAAGGGSG (biotinylated (position not given); C-terminal glycine not present in CLPTM1) [CLPTM1 peptide … (SEQ ID NO: 250)] | no binding
PLRVSFCPLSLWRWQLYAAQG (biotinylated (position not given); C-terminal glycine not present in CLPTM1) [CLPTM1 peptide … (SEQ ID NO: 265)] | no binding
NDYWNLQKDYYPINESLASLG (biotinylated (position not given); C-terminal glycine not present in CLPTM1) [CLPTM1 peptide … (SEQ ID NO: 264)] | no binding
SALFWEQHDLVYGDWTSGENG (biotinylated (position not given); C-terminal glycine not present in CLPTM1) [CLPTM1 peptide … (SEQ ID NO: 256)] | no binding
LMNLHVYISEHEHFTDFNATG (biotinylated (position not given); C-terminal glycine not present in CLPTM1) [CLPTM1 peptide … (SEQ ID NO: 255)] | no binding
RIFIIWAISSWFRRGPAPQDG (biotinylated (position not given); C-terminal glycine not present in CLPTM1) [CLPTM1 peptide … (SEQ ID NO: 253)] | no binding
RRRFQKTKNLLTGETEADPEG (biotinylated (position not given); C-terminal glycine not present in CLPTM1) [CLPTM1 peptide … (SEQ ID NO: 260)] | no binding
SDGCYEHFAELDIPQSVQQNG (biotinylated (position not given); C-terminal glycine not present in CLPTM1) [CLPTM1 peptide … (SEQ ID NO: 257)] | no binding
QAGPGGAPRVASRNLFPKDTG (biotinylated (position not given); C-terminal glycine not present in CLPTM1) [CLPTM1 peptide … (SEQ ID NO: 254)] | no binding
SGQVTSNGSIGRDPPAETQPG (biotinylated (position not given); C-terminal glycine not present in CLPTM1) [CLPTM1 peptide … (SEQ ID NO: 251)] | no binding

The remaining lines, values ahead:

binding | Binder
no binding | LWRWQLYAAQSTKSPWNFLGG (biotinylated (position not given); C-terminal glycine not present in CLPTM1) [CLPTM1 peptide … (SEQ ID NO: 268)]
no binding | STKSPWNFLGDELYEQSDEEG (biotinylated (position not given); C-terminal glycine not present in CLPTM1) [CLPTM1 peptide … (SEQ ID NO: 266)]
no binding | WQVIKGVLFRIFIIWAISSWG (biotinylated (position not given); C-terminal glycine not present in CLPTM1) [CLPTM1 peptide … (SEQ ID NO: 271)]
no binding | YEQSDEEQDSVKVALLETNPG (biotinylated (position not given); C-terminal glycine not present in CLPTM1) [CLPTM1 peptide … (SEQ ID NO: 267)]
no binding | RNLFPKDTLMNLHVYISEHEG (biotinylated (position not given); C-terminal glycine not present in CLPTM1) [CLPTM1 peptide … (SEQ ID NO: 272)]
no binding | FTDFNATSALFWEQHDLVYGG (biotinylated (position not given); C-terminal glycine not present in CLPTM1) [CLPTM1 peptide … (SEQ ID NO: 273)]
